Test results published in PMC3606321.
Residue numbers refer to the chain shown, from its start. These are yes or no findings as the source states them, for the method shown. In cells and extracts the contact can be indirect. These calls come from enrichment with a bait or labelling near it, and not all partners need be listed.

Chains of the proteins cited; added tags and fusions are not shown. Lines headed by an entry give the natural chain unless they say otherwise; changes in a name come on top. A line that says so, or that is headed by a name, gives the form on record, which may keep a tag or linker.
PPP1CC2, endogenous in human sperm (P36873-2, form named): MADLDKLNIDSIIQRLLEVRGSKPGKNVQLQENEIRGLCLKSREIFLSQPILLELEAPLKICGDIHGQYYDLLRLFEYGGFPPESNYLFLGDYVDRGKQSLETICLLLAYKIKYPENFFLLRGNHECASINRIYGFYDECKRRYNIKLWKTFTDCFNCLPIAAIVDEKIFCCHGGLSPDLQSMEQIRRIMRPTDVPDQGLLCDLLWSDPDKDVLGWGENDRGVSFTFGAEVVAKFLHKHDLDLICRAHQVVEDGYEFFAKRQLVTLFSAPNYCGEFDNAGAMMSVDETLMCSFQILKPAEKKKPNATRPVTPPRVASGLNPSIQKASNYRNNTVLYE

Assays:
[1] = target: T1, PPP1R2, endogenous in human sperm (human (endogenous in sperm)) (UniProt P41236); assay: affinity purification with mass spectrometry; immunoprecipitation with sheep or rabbit anti-PPP1R2 on Dynabeads Protein G from human ejaculated sperm extracts (RIPA; heat-stable extracts by the results), overnight 4 C; bands analysed by Orbitrap Velos MS
T1 sequence: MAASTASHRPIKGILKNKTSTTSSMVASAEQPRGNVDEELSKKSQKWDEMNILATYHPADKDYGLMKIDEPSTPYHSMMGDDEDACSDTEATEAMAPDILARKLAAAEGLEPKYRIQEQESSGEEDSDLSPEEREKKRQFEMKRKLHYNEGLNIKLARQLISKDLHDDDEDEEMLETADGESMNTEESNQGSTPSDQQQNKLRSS

[2] = target: T2, PPP1R2P3, endogenous in human sperm (human (endogenous in sperm)) (UniProt Q6NXS1); assay: as above
T2 sequence: T1 sequence with G34R, N35S, M50I, D62G, T73P, S87R, A91T, R102K, K143R

**Q.** Which binding [1] does the source give for “PPP1CC2, endogenous in human sperm (from UniProt P36873-2 1-337) (enzyme)” here?
**A.** binds

**Q.** And the binding [2]?
**A.** binds
